Laboratory results taken from article PMC3858551.
No constants are given. Whether binding was seen depends on the method and setting. In cells and extracts the contact can be indirect. Some entries that bind do so weakly or less than the wild type.

By UniProt entry, the sequences of proteins in these tests, tags left out. Residues count along the entry.
UniProt Q05397: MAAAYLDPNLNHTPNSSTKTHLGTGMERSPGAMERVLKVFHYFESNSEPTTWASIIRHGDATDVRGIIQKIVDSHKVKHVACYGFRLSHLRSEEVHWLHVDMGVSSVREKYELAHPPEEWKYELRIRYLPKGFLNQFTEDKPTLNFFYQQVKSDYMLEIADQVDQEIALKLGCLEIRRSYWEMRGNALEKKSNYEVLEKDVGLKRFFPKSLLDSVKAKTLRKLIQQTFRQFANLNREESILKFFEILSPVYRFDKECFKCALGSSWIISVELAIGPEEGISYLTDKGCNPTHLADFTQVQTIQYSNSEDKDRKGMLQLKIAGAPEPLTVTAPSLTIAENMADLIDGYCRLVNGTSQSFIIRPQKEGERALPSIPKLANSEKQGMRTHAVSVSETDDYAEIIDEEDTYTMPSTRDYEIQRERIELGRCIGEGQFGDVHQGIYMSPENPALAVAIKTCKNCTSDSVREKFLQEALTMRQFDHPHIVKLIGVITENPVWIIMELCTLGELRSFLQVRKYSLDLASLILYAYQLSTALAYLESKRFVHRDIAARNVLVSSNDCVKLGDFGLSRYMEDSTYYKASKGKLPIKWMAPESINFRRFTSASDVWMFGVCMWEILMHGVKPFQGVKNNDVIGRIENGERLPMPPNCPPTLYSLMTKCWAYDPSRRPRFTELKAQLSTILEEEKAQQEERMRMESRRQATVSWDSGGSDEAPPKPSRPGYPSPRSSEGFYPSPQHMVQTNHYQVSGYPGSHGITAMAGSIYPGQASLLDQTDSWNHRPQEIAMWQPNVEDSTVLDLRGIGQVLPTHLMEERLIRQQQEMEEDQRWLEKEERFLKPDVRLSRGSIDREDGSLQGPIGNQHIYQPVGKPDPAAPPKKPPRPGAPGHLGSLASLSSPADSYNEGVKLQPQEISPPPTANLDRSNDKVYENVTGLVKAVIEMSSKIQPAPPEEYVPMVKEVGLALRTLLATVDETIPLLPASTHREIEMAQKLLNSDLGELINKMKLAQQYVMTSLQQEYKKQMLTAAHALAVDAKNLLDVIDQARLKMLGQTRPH
UniProt P35916, residues 25-1363: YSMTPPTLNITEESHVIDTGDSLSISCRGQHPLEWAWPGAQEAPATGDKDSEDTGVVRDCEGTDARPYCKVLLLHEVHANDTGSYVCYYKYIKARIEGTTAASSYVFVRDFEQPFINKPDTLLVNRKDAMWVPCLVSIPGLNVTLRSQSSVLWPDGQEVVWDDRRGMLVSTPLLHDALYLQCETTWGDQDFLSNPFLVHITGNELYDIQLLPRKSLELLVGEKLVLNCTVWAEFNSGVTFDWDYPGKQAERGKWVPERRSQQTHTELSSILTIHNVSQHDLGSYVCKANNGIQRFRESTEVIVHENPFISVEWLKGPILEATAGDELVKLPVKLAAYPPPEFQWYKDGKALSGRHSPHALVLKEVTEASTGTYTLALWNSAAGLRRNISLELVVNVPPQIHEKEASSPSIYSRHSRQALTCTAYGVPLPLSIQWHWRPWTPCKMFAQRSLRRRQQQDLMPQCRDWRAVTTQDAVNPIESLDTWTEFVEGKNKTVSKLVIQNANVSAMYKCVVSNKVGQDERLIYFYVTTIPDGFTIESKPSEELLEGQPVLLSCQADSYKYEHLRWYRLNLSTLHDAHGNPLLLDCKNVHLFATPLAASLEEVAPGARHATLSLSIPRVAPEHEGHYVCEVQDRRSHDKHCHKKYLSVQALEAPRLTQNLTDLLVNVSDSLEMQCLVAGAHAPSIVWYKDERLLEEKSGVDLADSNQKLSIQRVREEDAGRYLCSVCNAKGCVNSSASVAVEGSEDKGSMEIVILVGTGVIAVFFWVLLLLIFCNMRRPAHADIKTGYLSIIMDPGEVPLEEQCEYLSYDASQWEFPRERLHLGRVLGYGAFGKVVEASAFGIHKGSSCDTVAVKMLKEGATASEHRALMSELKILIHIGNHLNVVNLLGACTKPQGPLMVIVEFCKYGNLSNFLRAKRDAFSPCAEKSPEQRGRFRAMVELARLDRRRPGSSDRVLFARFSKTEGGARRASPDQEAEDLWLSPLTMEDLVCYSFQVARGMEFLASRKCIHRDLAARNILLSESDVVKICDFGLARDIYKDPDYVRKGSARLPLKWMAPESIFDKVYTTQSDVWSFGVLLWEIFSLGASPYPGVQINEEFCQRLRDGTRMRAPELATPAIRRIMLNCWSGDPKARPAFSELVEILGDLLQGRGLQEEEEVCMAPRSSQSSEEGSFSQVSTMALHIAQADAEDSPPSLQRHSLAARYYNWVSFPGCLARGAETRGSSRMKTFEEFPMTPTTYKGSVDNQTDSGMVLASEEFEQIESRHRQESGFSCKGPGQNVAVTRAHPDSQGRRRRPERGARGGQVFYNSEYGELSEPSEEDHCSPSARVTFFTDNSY

Molecular target: Focal adhesion kinase (human (endogenous in MiaPaCa-2 and Panc-1)) (UniProt Q05397)
Assay: co-IP; FAK immunoprecipitated from lysates of MiaPaCa-2 and Panc-1 cells and probed for VEGFR-3; cells treated 24 h with increasing concentrations of C4 (chloropyramine hydrochloride; vehicle, 10 uM), MiaPaCa-2 also with VEGF-C; complex decreased by 10 uM C4

Substance: vascular endothelial growth factor receptor 3 (from UniProt P35916 25-1363)
- binding: binds
